# Results from the supplement of paper PMC8728848.
# The list shows a part of the results.
# Legend:
# Assay in all cases: glycan array binding signal (z-score within array); higher = stronger binding
# Details in all cases: glycan notation: IUPAC condensed, linker removed
# [1] = target: Fuc(a1-2)Gal(b1-4)[Fuc(a1-3)]GlcNAc
# Outline: (§1)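 The Consortium for Functional Glycomics database supplied 3228 glycan arrays, of which those lacking an available protein sequence were dropped. The binding signal, a within-array Z-score, was averaged across arrays of the same protein sequence and across linkers. Negative scores can be read as non-binding.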
# [2] = target: Fuc(a1-2)Gal(b1-4)[Fuc(a1-3)]GlcNAc(b1-2)Man(a1-3)[Fuc(a1-2)Gal(b1-4)[Fuc(a1-3)]GlcNAc(b1-2)Man(a1-6)]Man(b1-4)GlcNAc(b1-4)GlcNAc
# Outline: as §1
# [3] = target: Fuc(a1-2)Gal(b1-4)[Fuc(a1-3)]GlcNAc(b1-2)[Fuc(a1-2)Gal(b1-4)[Fuc(a1-3)]GlcNAc(b1-4)]Man(a1-3)[Fuc(a1-2)Gal(b1-4)[Fuc(a1-3)]GlcNAc(b1-2)Man(a1-6)]Man(b1-4)GlcNAc(b1-4)GlcNAc
# Outline: as §1
# [4] = target: Fuc(a1-2)Gal(b1-4)[Fuc(a1-3)]GlcNAc(b1-3)Gal(b1-4)[Fuc(a1-3)]GlcNAc
# Outline: as §1
# [5] = target: Fuc(a1-2)Gal(b1-4)[Fuc(a1-3)]GlcNAc(b1-3)Gal(b1-4)[Fuc(a1-3)]GlcNAc(b1-3)Gal(b1-4)[Fuc(a1-3)]GlcNAc
# Outline: as §1
# [6] = target: Fuc(a1-2)Gal(b1-4)[Fuc(a1-3)]GlcNAc(b1-3)GalNAc
# Outline: as §1
# [7] = target: Fuc(a1-2)Gal6S(b1-4)Glc
# Outline: as §1
# [8] = target: Fuc(a1-2)Gal6S(b1-4)Glc6S
# Outline: as §1
# [9] = target: Fuc(a1-2)Gal6S(b1-4)GlcNAc
# Outline: as §1
# [10] = target: Fuc(a1-2)[Gal(a1-3)]Gal
# Outline: as §1
# [11] = target: Fuc(a1-2)[Gal(a1-3)]Gal(b1-3)GalNAc
# Outline: as §1
# [12] = target: Fuc(a1-2)[Gal(a1-3)]Gal(b1-3)GlcNAc
# Outline: as §1
# [13] = target: Fuc(a1-2)[Gal(a1-3)]Gal(b1-3)GlcNAc(b1-2)Man(a1-3)[Fuc(a1-2)[Gal(a1-3)]Gal(b1-3)GlcNAc(b1-2)Man(a1-6)]Man(b1-4)GlcNAc(b1-4)GlcNAc
# Outline: as §1
# [14] = target: Fuc(a1-2)[Gal(a1-3)]Gal(b1-3)GlcNAc(b1-2)Man(a1-3)[Fuc(a1-2)[Gal(a1-3)]Gal(b1-3)GlcNAc(b1-2)Man(a1-6)]Man(b1-4)GlcNAc(b1-4)[Fuc(a1-6)]GlcNAc
# Outline: as §1
# [15] = target: Fuc(a1-2)[Gal(a1-3)]Gal(b1-3)GlcNAc(b1-3)GalNAc
# Outline: as §1
# [16] = target: Fuc(a1-2)[Gal(a1-3)]Gal(b1-4)Glc
# Outline: as §1
# [17] = target: Fuc(a1-2)[Gal(a1-3)]Gal(b1-4)GlcNAc
# Outline: as §1
# [18] = target: Fuc(a1-2)[Gal(a1-3)]Gal(b1-4)GlcNAc(b1-2)Man(a1-3)[Fuc(a1-2)[Gal(a1-3)]Gal(b1-4)GlcNAc(b1-2)Man(a1-6)]Man(b1-4)GlcNAc(b1-4)GlcNAc
# Outline: as §1
# [19] = target: Fuc(a1-2)[Gal(a1-3)]Gal(b1-4)GlcNAc(b1-2)Man(a1-3)[Fuc(a1-2)[Gal(a1-3)]Gal(b1-4)GlcNAc(b1-2)Man(a1-6)]Man(b1-4)GlcNAc(b1-4)[Fuc(a1-6)]GlcNAc
# Outline: as §1
# [20] = target: Fuc(a1-2)[Gal(a1-3)]Gal(b1-4)GlcNAc(b1-3)GalNAc
# Outline: as §1
# [21] = target: Fuc(a1-2)[Gal(a1-3)]Gal(b1-4)[Fuc(a1-3)]Glc
# Outline: as §1
# [22] = target: Fuc(a1-2)[Gal(a1-3)]Gal(b1-4)[Fuc(a1-3)]GlcNAc
# Outline: as §1
# [23] = target: Fuc(a1-2)[Gal(a1-3)]Gal(b1-4)[Fuc(a1-3)]GlcNAc(b1-3)GalNAc
# Outline: as §1
# [24] = target: Fuc(a1-2)[Gal(a1-4)]Gal(b1-4)GlcNAc
# Outline: as §1
# [25] = target: Fuc(a1-2)[GalNAc(a1-3)]Gal
# Outline: as §1
# [26] = target: Fuc(a1-2)[GalNAc(a1-3)]Gal(b1-3)GalNAc(a1-3)[Fuc(a1-2)]Gal(b1-4)GlcNAc
# Outline: as §1
# [27] = target: Fuc(a1-2)[GalNAc(a1-3)]Gal(b1-3)GlcNAc
# Outline: as §1
# [28] = target: Fuc(a1-2)[GalNAc(a1-3)]Gal(b1-3)GlcNAc(b1-2)Man(a1-3)[Fuc(a1-2)[GalNAc(a1-3)]Gal(b1-3)GlcNAc(b1-2)Man(a1-6)]Man(b1-4)GlcNAc(b1-4)GlcNAc
# Outline: as §1
# [29] = target: Fuc(a1-2)[GalNAc(a1-3)]Gal(b1-3)GlcNAc(b1-2)Man(a1-3)[Fuc(a1-2)[GalNAc(a1-3)]Gal(b1-3)GlcNAc(b1-2)Man(a1-6)]Man(b1-4)GlcNAc(b1-4)[Fuc(a1-6)]GlcNAc
# Outline: as §1
# [30] = target: Fuc(a1-2)[GalNAc(a1-3)]Gal(b1-3)GlcNAc(b1-3)GalNAc
# Outline: as §1
binder,measurement,setting,value
"Eosinophil-derived neurotoxin (EDN) (Homo sapiens), P10153 (protein) MVPKLFTSQICLLLLLGLLAVEGSLHVKPPQFTWAQWFETQHINMTSQQCTNAMQVINNYQRRCKNQNTFLLTTFANVVNVCGNPNMTCPSNKTRKNCHHSGSQVPLIHCNLTTPSPQNISNCRYAQTPANMFYIVACDNRDQRRDPPQYPVVPVHLDRII",glycan array binding signal (z-score),[1],-0.438
same,glycan array binding signal (z-score),[2],-0.67
same,glycan array binding signal (z-score),[3],0.421
same,glycan array binding signal (z-score),[4],0.403
same,glycan array binding signal (z-score),[5],0.022
same,glycan array binding signal (z-score),[6],0.142
same,glycan array binding signal (z-score),[7],-0.025
same,glycan array binding signal (z-score),[8],-0.374
same,glycan array binding signal (z-score),[9],-0.479
same,glycan array binding signal (z-score),[10],-0.212
same,glycan array binding signal (z-score),[11],-0.092
same,glycan array binding signal (z-score),[12],-0.099
same,glycan array binding signal (z-score),[13],0.666
same,glycan array binding signal (z-score),[14],0.558
same,glycan array binding signal (z-score),[15],-0.605
same,glycan array binding signal (z-score),[16],-0.364
same,glycan array binding signal (z-score),[17],0.467
same,glycan array binding signal (z-score),[18],-0.184
same,glycan array binding signal (z-score),[19],-0.229
same,glycan array binding signal (z-score),[20],-0.523
same,glycan array binding signal (z-score),[21],-0.193
same,glycan array binding signal (z-score),[22],-0.157
same,glycan array binding signal (z-score),[23],-0.276
same,glycan array binding signal (z-score),[24],-0.308
same,glycan array binding signal (z-score),[25],0.012
same,glycan array binding signal (z-score),[26],0.187
same,glycan array binding signal (z-score),[27],-0.146
same,glycan array binding signal (z-score),[28],0.308
same,glycan array binding signal (z-score),[29],0.081
same,glycan array binding signal (z-score),[30],-0.067

# Quoted at random: two records from the list
binder,measurement,setting,value
"Eosinophil-derived neurotoxin (EDN) (Homo sapiens), P10153 (protein) MVPKLFTSQICLLLLLGLLAVEGSLHVKPPQFTWAQWFETQHINMTSQQCTNAMQVINNYQRRCKNQNTFLLTTFANVVNVCGNPNMTCPSNKTRKNCHHSGSQVPLIHCNLTTPSPQNISNCRYAQTPANMFYIVACDNRDQRRDPPQYPVVPVHLDRII",glycan array binding signal (z-score),[19],-0.229
same,glycan array binding signal (z-score),[29],0.081
